From patent publication US11331295B2, “High-dose statins for age-related macular degeneration” (MASSACHUSETTS EYE AND EAR INFIRMARY, priority 2015, dated 2022)

System: patients with AMD with many large, soft drusen/drusenoid PEDs
Conditions: 23 patients, ~30 person-years of follow-up; 14% expected by risk calculator
Experimental: A case report and pilot multi-center prospective interventional study were conducted with IRB approval. Inclusion criteria were patients over the age of 50 with diagnosis of AMD and the presence of many large, soft drusen/drusenoid PEDs in both eyes. […] Pseudophakia was not a reason for exclusion, unless accompanied by significant posterior capsular opacity.

CC(C)c1c(C(=O)Nc2ccccc2)c(-c2ccccc2)c(-c2ccc(F)cc2)n1CC[C@@H](O)C[C@@H](O)CC(=O)O [atorvastatin]
patients converted/progressed to neovascular (wet) AMD: None and none
